{"source": "paper PMC11592504", "binders": {"B1": {"name": "endothelial NO Synthase, P29474 1-1203 (enzyme)", "chain": "MGNLKSVAQEPGPPCGLGLGLGLGLCGKQGPATPAPEPSRAPASLLPPAPEHSPPSSPLTQPPEGPKFPRVKNWEVGSITYDTLSAQAQQDGPCTPRRCLGSLVFPRKLQGRPSPGPPAPEQLLSQARDFINQYYSSIKRSGSQAHEQRLQEVEAEVAATGTYQLRESELVFGAKQAWRNAPRCVGRIQWGKLQVFDARDCRSAQEMFTYICNHIKYATNRGNLRSAITVFPQRCPGRGDFRIWNSQLVRYAGYRQQDGSVRGDPANVEITELCIQHGWTPGNGRFDVLPLLLQAPDDPPELFLLPPELVLEVPLEHPTLEWFAALGLRWYALPAVSNMLLEIGGLEFPAAPFSGWYMSTEIGTRNLCDPHRYNILEDVAVCMDLDTRTTSSLWKDKAAVEINVAVLHSYQLAKVTIVDHHAATASFMKHLENEQKARGGCPADWAWIVPPISGSLTPVFHQEMVNYFLSPAFRYQPDPWKGSAAKGTGITRKKTFKEVANAVKISASLMGTVMAKRVKATILYGSETGRAQSYAQQLGRLFRKAFDPRVLCMDEYDVVSLEHETLVLVVTSTFGNGDPPENGESFAAALMEMSGPYNSSPRPEQHKSYKIRFNSISCSDPLVSSWRRKRKESSNTDSAGALGTLRFCVFGLGSRAYPHFCAFARAVDTRLEELGGERLLQLGQGDELCGQEEAFRGWAQAAFQAACETFCVGEDAKAAARDIFSPKRSWKRQRYRLSAQAEGLQLLPGLIHVHRRKMFQATIRSVENLQSSKSTRATILVRLDTGGQEGLQYQPGDHIGVCPPNRPGLVEALLSRVEDPPAPTEPVAVEQLEKGSPGGPPPGWVRDPRLPPCTLRQALTFFLDITSPPSPQLLRLLSTLAEEPREQQELEALSQDPRRYEEWKWFRCPTLLEVLEQFPSVALPAPLLLTQLPLLQPRYYSVSSAPSTHPGEIHLTVAVLAYRTQDGLGPLHYGVCSTWLSQLKPGDPVPCFIRGAPSFRLPPDPSLPCILVGPGTGIAPFRGFWQERLHDIESKGLQPTPMTLVFGCRCSQLDHLYRDEVQNAQQRGVFGRVLTAFSREPDNPKTYVQDILRTELAAEVHRVLCLERGHMFVCGDVTMATNVLQTVQRILATEGDMELDEAGDVIGVLRDQQRYHEDIFGLTLRTQEVTSRIRTQSFSLQERQLRGAVPWAFDPPGSDTNSP"}}, "target": "T1, Caveolin-1 (human (endogenous in primary human ECs)), Q03135", "T1 chain": "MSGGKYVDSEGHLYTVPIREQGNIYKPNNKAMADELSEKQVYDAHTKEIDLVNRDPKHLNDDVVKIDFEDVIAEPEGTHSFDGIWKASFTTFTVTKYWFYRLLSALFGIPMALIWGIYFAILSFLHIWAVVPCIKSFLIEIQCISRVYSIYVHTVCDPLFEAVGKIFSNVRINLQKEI", "experiment": "proximity ligation; Duolink In Situ kit on fixed, permeabilised primary human ECs transfected with empty vector or HA-ADGRL2-FLAG and treated for 20 h with 150 ng/mL active LPS or detoxified LPS; negative controls with only one primary antibody", "conditions": "remark: other sources report otherwise", "note": "No constants are given. Whether binding was seen depends on the method and setting. Binding seen in cells or lysates may run through a third protein. Some results given as binding are weak or reduced against the parent protein; the word gives no strength.", "data": [{"binder": "B1", "values": [{"measurement": "binding", "result": "binds"}]}]}
